Library screening results

Protein sequences, listed by entry. Tags and fused reporters are not part of them.
UniProt E9BF75, entry or part of it: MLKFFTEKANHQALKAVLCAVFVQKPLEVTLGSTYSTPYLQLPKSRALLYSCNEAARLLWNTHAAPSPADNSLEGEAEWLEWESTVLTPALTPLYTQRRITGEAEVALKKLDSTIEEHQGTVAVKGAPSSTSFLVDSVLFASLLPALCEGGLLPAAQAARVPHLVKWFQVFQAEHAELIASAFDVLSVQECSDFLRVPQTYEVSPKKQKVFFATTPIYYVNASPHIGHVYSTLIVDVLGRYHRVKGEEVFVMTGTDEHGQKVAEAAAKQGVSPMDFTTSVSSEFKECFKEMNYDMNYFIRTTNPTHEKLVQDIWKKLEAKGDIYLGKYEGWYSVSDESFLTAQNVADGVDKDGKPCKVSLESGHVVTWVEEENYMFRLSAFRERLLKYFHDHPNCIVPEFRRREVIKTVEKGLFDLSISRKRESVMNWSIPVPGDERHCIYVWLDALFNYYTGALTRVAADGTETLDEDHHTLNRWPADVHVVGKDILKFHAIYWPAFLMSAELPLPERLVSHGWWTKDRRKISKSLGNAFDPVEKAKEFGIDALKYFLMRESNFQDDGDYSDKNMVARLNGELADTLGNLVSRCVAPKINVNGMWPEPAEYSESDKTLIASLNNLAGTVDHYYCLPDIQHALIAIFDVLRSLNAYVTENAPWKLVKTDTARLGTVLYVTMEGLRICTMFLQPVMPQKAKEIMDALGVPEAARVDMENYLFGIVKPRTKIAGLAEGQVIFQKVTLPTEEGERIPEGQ

Source: ChEMBL document CHEMBL3988442, “University of Dundee, Small-Polar-MMV Screening Library” (2021).

Results are percentages, as filed.
The record does not define 0% and 100%; most values in the screen are far below 50% and negative numbers occur (in some assays of this library far below -100).
The compounds are a random part of those screened.

Mtb heat-shock: 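Assay on Mycobacterium tuberculosis, filed only as a heat shock assay from Cornell; the read-out is not stated. The concentration is filed as 10 mM, unlikely as a test dose, so the dose is not known. Higher reads as stronger inhibition (inferred: compounds with an IC50 in retests scored well above the rest). Of about 69,000 compounds tested this way, about 930 (1.4%) reached 50% or more in at least one test.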
Mtb growth Cornell: 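Whole-cell assay for inhibitors of Mycobacterium tuberculosis growth, labelled Cornell in the record; the read-out is not stated. The concentration is filed as 10 mM, unlikely as a test dose, so the dose is not known. Higher means stronger inhibition (inferred from two other growth screens of the library). Size under these conditions: about 53,000 compounds, about 900 of them at 50% or above in at least one test.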
LdMetRS: 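Primary screen of methionyl-tRNA synthetase; the read-out is not stated. Target: Methionyl-tRNA synthetase (putative), Leishmania donovani (UniProt E9BF75). The test concentration is not given. Values are per cent inhibition. Of about 68,000 compounds tested this way, about 24 (0.035%) reached 50% or more in at least one test.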

CCC(C(=O)NCCc1ccn(-c2ccccc2)n1)N1CCCC1=O (stereo not shown) gave Mtb heat-shock: -1.64%; LdMetRS: 8.635%. For O=C(CCNS(=O)(=O)c1ccc(F)c(F)c1)NCc1ccoc1 the result was Mtb heat-shock: -31.23%; Mtb growth Cornell: -15.3%; LdMetRS: 7.427%. CN(Cc1ccsc1)C(=O)c1nc(N2CCCCC2)ncc1Cl read Mtb heat-shock: -19.08%; LdMetRS: 13.94%. For CCC(=O)N1CCN(CCn2cccn2)c2ncccc2C1 the result was LdMetRS: 4.134%. Result for NC(=O)NC(=O)CCN1CCN(c2nccs2)CC1 was Mtb heat-shock: 101.5%; LdMetRS: 8.434%. For c1cc(N2CCCCC2)ccc1-c1noc(CN2CCOCC2)n1 the result was Mtb heat-shock: -2.244%; Mtb growth Cornell: 5.485%; LdMetRS: 15.82%. Result for CCC(C#N)NC(=O)CCCOc1cccc(C(C)=O)c1 (stereo not shown) was Mtb heat-shock: -25.24%; Mtb growth Cornell: 23.36%; LdMetRS: 12.59%.

Result for CN1CCCc2cc(-c3cncn3CC(=O)NC(C)(C)C)ccc21.Cl was Mtb heat-shock: -17.33%; Mtb growth Cornell: 13.27%. With CCSc1ccc(NC(=O)NC(C)c2c(C)nn(C)c2C)cn1 (stereo not shown) the screen gave Mtb heat-shock: 24.99%; Mtb growth Cornell: 13.09%; LdMetRS: 11.7%. For [H][C@]12CN(S(=O)(=O)c3ccc(C(=O)NCCSCC)cc3)[C@]([H])(CN1)C2 the result was Mtb heat-shock: 13.53%; Mtb growth Cornell: 28.51%. Cc1nc(C)n(CC2CCCN2CC(=O)NCCc2cccs2)n1 (stereo not shown) gave Mtb heat-shock: 16.15%; Mtb growth Cornell: 18.89%; LdMetRS: 14.5%. For N#CCCCS(=O)(=O)N1CCCC1CC(=O)c1cccs1 (stereo not shown) the result was Mtb heat-shock: -3.129%; LdMetRS: 15.58%. Result for Cc1ccc(C(=O)N2CCCC(NC(=O)C(C)C)C2)c(O)c1 (stereo not shown) was Mtb heat-shock: -0.6391%; Mtb growth Cornell: -1.336%; LdMetRS: 14.38%. COc1ccccc1NCc1cscn1 gave LdMetRS: 12.21%.

Cc1cc(NC(C)Cc2cccs2)n2nccc2n1 (stereo not shown) read Mtb heat-shock: 4.639%; LdMetRS: 11.68%. With COCC(=O)N1CCN(c2ncnc3cccc(F)c23)CC1 the screen gave Mtb heat-shock: -31.98%; Mtb growth Cornell: -18.08%; LdMetRS: 3.495%. With CC(C)c1ccc(OCCC(=O)N(C)CC(=O)N(C)C)cc1 the screen gave Mtb heat-shock: -7.23%; Mtb growth Cornell: 14.09%; LdMetRS: 7.796%. With CC(C)Cn1ncc2cc(C(=O)N(C)CCc3ccccc3)cnc21 the screen gave Mtb heat-shock: -11.76%; Mtb growth Cornell: 28.34%; LdMetRS: 19.24%. Result for CC(C)CN(CC(O)c1ccc(F)cc1)C(=O)c1cc[nH]n1 (stereo not shown) was Mtb heat-shock: -0.1872%; Mtb growth Cornell: 8.111%; LdMetRS: 8.403%. For CCC(C)(NCC(=O)NC(=O)NC)c1nccs1 (stereo not shown) the result was Mtb heat-shock: 11.49%; Mtb growth Cornell: -21.72%; LdMetRS: 4.337%. For COc1ccccc1OCc1cc(C(=O)N2CCS(=O)(=O)CC2)n[nH]1 the result was Mtb heat-shock: -2.103%; Mtb growth Cornell: 2.129%; LdMetRS: 7.865%.

O=S(=O)(c1cn[nH]c1)N1C[C@@H](O)[C@H](N2CCc3ccccc3C2)C1 read Mtb heat-shock: 5.139%; Mtb growth Cornell: 20.35%; LdMetRS: 13.3%. Result for OC1(CNCCc2nc3c(s2)CCCC3)CNCCOC1 (stereo not shown) was Mtb heat-shock: -6.856%; Mtb growth Cornell: 3.984%; LdMetRS: 28.37%. Result for CN(Cc1nc(C2CC2)no1)C(=O)CN1CC(c2ccccc2)CC1=O (stereo not shown) was Mtb heat-shock: 2.465%; LdMetRS: 5.861%.

2 of the entries, repeated:

Compound	Mtb heat-shock	Mtb growth Cornell	LdMetRS
Cc1ccc(C(=O)N2CCCC(NC(=O)C(C)C)C2)c(O)c1 (stereo not shown)	-0.6391%	-1.336%	14.38%
COCC(=O)N1CCN(c2ncnc3cccc(F)c23)CC1	-31.98%	-18.08%	3.495%